For at least one entry, the source does not settle the construct or the ends of the probe.
Tested on: PrpT + PrpA (in PrpT/PrpA complex)
Experiment: EMSA
Details: EMSA: 0.1 pmol probe in 20 ul, 1x LightShift Binding buffer, 2.5% glycerol, 0.05% NP40, 50 mM added KCl, 5 mM MgCl2, 0.25 ug poly(dI:dC), 25 C 2 h; recombinant protein; label: biotin (EMSA) or FAM (footprinting) on M13F end; probe letters rebuilt from the primers and the genome; part of a longer molecule

CTTTTCAACCCGTTGTTCATTATATCGAATTTGACTTCGACTCAACCGACTTACCGGGCCACGCCGCTGATGTCCTGGCGCCCCATATTACATATCTCACCACGCATCCGAATGAGCGGATCTTAATTCAGGGCGCAGGCGACACGTCGGGTACCTTTGCCTACAATTATCAGCTGGGACTGGCGCGGGCCCGGGCAGTCATGCGTCACCTCACGGATGCCGGCATTGACGCGCAGCGCATTAAAGTCGTGTCTGTGTCTAAGGCCAATGCCCGGCAAAAATCCTACACGCGCACCGCGCACCTGGTTTACTGACGCCTCTGCGCACACCCGTCATGGTAGTTTGTAATGATATGTCTTATAATTGACCAGGTAGACCCTGACAAGAAAAGAGGCTCAGT (double strand) [prpAT promoter probe]
binding result: binds
